In publication doi:10.1101/2025.03.29.646082:
No signal at the amounts used counts as a negative. At least one verdict was read from the data and is not stated in words by the source.

Chains of the proteins cited; added tags and fusions are not shown. Residues count along the entry.
UniProt P02647, 25-267: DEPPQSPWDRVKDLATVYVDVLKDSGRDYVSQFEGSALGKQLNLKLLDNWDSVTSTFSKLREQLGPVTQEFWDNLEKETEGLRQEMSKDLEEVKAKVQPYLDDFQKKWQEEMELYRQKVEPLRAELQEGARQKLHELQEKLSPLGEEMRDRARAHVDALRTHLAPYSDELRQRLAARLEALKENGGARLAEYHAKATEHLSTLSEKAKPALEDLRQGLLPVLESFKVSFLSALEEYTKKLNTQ

Target: ApoA1 in HDL particles (UniProt P02647)
Experiment: pull-down on aptamer mesh
Conditions: (V)LDL + HDL mixture, uncaptured HDL passed through; 3'-C6-NH2

Q: Does “ACCTCGATTTTATATTATTTCGCTTACCAACAACTGCAGA [ApoB-100 aptamer]” bind?
A: no binding
